# In the supplement of paper PMC6411743:
# Chains of the proteins cited; added tags and fusions are not shown. Lines headed by an entry give the natural chain unless they say otherwise; changes in a name come on top.
# UniProt P56159: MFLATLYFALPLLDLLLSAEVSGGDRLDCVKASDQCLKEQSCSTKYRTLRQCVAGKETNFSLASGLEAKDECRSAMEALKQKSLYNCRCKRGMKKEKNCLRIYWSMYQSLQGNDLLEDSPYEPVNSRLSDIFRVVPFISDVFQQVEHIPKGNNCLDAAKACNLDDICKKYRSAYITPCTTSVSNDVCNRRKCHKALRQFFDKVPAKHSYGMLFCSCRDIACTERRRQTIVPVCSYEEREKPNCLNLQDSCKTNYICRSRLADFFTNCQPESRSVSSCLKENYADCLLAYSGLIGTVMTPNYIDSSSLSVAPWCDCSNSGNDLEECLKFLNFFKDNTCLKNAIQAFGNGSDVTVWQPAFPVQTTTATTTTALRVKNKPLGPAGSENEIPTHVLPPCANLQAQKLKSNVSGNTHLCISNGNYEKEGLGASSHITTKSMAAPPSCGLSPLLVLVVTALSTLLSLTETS
# UniProt Q00266: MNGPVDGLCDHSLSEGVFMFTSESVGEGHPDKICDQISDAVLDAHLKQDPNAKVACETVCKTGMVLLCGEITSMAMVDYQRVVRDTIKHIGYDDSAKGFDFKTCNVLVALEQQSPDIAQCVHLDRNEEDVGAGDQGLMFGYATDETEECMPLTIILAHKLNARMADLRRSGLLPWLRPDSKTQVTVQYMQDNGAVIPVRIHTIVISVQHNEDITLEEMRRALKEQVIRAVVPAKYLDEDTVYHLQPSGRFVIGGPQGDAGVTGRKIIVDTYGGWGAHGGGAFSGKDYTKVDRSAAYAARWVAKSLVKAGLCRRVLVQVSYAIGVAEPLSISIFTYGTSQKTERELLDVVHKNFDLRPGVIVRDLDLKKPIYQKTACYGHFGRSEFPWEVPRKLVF
# UniProt P53621: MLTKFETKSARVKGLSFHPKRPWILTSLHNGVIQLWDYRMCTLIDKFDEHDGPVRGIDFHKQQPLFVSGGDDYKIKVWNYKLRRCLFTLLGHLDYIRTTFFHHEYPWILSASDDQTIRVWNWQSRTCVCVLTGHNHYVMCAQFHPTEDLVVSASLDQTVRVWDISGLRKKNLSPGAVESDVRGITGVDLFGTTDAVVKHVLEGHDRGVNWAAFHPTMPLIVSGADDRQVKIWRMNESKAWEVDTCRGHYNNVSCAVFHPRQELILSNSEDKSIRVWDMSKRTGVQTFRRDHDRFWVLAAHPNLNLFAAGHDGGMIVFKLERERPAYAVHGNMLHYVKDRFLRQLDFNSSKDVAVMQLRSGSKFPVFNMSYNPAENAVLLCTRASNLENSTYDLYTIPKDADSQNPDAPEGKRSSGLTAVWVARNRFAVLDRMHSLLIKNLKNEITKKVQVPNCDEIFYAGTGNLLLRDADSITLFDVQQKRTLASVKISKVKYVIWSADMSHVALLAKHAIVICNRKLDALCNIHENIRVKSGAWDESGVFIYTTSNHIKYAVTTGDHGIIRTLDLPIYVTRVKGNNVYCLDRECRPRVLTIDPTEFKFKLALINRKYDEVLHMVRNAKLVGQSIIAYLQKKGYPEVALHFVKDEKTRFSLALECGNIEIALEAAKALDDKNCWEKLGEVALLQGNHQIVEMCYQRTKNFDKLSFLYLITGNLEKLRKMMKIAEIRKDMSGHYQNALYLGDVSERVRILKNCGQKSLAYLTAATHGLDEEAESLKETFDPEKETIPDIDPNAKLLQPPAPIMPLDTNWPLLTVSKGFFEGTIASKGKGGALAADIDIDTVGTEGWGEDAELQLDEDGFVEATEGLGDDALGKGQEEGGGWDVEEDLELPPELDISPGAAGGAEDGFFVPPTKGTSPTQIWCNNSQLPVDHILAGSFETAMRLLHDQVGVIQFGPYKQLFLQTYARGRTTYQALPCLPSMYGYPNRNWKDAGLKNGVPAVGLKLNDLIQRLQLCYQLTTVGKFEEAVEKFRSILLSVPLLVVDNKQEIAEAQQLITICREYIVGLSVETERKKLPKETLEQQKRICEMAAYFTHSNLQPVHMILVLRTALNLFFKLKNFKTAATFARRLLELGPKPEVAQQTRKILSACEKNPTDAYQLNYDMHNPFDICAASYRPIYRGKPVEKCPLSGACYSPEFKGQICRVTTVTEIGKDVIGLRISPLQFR
# UniProt Q00403, whole entry: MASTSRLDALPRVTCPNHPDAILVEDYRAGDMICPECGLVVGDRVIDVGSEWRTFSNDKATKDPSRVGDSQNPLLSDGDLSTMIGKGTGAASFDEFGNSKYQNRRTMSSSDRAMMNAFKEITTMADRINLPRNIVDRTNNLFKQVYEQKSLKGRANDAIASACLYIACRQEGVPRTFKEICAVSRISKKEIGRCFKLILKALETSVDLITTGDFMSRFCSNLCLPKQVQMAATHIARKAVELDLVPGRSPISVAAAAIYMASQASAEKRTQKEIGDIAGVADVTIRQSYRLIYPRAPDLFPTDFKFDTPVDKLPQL
# UniProt P53602: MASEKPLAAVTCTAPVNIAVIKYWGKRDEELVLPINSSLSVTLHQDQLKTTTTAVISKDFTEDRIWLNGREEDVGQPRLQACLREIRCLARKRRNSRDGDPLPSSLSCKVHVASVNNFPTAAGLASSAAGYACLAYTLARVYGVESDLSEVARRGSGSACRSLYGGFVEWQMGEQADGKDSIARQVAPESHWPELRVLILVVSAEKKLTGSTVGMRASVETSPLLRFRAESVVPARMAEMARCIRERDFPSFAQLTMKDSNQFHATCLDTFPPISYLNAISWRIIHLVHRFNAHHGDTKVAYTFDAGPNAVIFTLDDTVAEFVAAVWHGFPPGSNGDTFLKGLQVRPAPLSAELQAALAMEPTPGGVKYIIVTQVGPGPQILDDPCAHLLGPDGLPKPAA
# UniProt P60520, whole entry: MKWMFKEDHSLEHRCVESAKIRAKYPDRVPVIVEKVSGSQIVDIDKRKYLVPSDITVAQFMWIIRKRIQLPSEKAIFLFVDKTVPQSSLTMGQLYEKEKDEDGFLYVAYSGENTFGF
# UniProt P51692: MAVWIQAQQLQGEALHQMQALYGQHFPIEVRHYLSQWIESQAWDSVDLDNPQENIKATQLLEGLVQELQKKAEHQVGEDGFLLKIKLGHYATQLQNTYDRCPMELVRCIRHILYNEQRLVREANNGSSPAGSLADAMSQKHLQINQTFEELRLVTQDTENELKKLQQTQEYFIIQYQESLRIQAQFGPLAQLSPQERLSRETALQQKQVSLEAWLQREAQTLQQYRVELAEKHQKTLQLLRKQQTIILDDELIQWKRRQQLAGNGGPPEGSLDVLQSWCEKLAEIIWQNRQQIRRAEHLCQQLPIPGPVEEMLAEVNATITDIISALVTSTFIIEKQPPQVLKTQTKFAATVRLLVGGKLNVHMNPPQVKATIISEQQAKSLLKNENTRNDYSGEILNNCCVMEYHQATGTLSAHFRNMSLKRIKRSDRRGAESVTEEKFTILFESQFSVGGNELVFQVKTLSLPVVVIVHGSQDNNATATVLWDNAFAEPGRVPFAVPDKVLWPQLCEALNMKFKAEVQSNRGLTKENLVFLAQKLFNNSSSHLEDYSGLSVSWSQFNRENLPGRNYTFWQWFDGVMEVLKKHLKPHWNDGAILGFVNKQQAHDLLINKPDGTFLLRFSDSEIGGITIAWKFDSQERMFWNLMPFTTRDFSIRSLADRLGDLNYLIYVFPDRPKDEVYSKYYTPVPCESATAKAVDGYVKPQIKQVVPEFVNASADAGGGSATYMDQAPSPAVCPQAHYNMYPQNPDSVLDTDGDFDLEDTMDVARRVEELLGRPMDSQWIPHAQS
# UniProt P50749: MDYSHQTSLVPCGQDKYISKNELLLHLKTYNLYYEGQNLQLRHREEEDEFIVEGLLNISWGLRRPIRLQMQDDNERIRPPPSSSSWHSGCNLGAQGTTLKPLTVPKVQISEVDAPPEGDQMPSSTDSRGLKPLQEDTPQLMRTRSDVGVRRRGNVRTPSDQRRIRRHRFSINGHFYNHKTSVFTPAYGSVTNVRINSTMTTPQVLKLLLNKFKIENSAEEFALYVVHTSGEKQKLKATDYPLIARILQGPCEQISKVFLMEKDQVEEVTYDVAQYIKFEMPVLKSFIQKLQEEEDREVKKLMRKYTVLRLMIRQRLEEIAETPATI
# UniProt P52306: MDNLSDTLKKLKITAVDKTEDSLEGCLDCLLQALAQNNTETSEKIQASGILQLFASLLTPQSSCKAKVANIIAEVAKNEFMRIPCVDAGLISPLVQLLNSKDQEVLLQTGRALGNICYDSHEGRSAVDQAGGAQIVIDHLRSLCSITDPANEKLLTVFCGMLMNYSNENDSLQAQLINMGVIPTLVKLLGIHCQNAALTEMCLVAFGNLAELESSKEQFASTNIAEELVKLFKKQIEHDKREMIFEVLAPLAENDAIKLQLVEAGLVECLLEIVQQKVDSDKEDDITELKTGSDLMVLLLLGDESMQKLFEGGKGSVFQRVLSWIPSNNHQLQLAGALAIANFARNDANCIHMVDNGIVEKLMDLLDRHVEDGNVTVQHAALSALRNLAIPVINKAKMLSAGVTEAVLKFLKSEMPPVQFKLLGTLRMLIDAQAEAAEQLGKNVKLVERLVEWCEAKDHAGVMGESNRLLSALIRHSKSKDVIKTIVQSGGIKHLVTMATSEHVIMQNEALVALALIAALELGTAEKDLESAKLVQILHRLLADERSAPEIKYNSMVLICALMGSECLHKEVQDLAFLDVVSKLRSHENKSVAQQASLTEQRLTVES
# UniProt P61968: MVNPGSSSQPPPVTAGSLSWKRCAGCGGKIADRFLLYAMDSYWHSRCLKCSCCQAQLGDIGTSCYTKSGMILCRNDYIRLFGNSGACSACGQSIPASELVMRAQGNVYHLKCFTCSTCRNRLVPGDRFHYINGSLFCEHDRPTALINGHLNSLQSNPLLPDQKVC
# UniProt P55039: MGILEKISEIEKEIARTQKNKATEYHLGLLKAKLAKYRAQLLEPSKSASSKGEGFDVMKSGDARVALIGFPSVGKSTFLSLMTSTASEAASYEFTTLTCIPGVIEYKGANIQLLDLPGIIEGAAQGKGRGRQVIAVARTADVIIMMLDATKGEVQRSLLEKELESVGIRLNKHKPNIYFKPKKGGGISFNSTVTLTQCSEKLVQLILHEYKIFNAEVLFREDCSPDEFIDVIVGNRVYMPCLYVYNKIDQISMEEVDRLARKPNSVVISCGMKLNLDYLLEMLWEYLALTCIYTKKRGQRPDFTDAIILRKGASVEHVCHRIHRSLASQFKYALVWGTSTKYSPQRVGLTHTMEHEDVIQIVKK
# UniProt P60891: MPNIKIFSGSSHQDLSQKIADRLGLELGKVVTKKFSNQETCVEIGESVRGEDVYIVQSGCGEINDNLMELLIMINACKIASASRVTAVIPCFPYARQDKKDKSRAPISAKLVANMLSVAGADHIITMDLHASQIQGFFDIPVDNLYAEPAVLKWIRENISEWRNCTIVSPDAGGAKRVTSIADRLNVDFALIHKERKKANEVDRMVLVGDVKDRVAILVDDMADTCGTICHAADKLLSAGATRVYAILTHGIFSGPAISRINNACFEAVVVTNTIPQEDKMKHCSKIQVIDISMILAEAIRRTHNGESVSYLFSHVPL
# UniProt P63279, whole entry: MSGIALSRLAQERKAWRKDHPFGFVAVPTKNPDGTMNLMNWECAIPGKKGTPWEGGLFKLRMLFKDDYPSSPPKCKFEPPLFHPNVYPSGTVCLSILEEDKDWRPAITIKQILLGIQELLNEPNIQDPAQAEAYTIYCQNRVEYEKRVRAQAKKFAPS
# UniProt P61024, whole entry: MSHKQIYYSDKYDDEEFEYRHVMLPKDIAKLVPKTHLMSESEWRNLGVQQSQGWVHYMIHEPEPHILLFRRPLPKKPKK
# UniProt P50750, whole entry: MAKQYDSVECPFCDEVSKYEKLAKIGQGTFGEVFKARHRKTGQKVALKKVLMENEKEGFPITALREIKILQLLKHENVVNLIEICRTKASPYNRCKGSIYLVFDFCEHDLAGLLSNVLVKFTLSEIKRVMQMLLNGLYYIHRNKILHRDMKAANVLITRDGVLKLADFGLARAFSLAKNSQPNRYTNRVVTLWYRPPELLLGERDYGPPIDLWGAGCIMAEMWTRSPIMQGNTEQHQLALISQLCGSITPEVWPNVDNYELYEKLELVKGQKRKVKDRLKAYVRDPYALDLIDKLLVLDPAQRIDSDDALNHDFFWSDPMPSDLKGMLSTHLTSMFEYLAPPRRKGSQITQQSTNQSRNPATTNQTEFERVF
# UniProt P61006: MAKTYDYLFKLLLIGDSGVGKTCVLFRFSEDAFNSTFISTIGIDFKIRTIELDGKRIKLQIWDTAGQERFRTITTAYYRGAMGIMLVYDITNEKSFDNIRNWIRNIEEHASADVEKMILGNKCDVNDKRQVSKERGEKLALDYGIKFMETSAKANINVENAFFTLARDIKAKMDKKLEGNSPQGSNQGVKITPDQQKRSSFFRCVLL
# UniProt P78346: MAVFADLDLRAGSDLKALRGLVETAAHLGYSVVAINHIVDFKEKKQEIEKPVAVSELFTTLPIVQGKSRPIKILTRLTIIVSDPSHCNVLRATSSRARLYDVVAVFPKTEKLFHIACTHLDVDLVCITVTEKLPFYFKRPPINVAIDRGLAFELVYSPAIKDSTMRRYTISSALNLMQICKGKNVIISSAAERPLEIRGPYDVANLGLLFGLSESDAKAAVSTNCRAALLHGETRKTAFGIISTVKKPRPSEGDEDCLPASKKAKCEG
# ± gives the standard deviation of the averaged measurements. Some of the results follow.
# Compound: Nc1nc2c(ncn2[C@@H]2O[C@H](COP(=O)(O)OP(=O)(O)OP(=O)(O)O)[C@@H](O)[C@H]2O)c(=O)[nH]1 [guanosine triphosphate]
# Experiment: NP40-soluble protein abundance relative to vehicle (solubility fold change) (ratio); higher = more soluble protein in presence of GTP
# Settings: concentration: 2mM
# How it was run: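 Across three independent experiments, values are fold changes against the detergent-processed vehicle for each replicate, based on vsn-normalised intensities. The samples were Jurkat crude lysate treated with eight concentrations (0.1 to 10 mM) for 10 min at room temperature and then 3 min at 37 °C. Lysate was solubilised with 0.8% NP40 and benzonase, ultracentrifuged, and the supernatant analysed by TMT-labelled LC-MS/MS.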
row,Target,NP40-soluble protein abundance
1,UniProt P56159 and related entries,0.997 ± 0.082
2,MAT1A (UniProt Q00266),1.05 ± 0.13
3,UniProt P53621 and related entries,1.04 ± 0.15
4,RPL7A (UniProt P62424),0.904 ± 0.083
5,KPNA2 (UniProt P52292),1 ± 0.024
6,UniProt P53367 and related entries,0.947 ± 0.039
7,GTF2B (UniProt Q00403),1 ± 0.02
8,MVD (UniProt P53602),0.912 ± 0.018
9,UniProt P60520,0.895 ± 0.072
10,STAT5B (UniProt P51692),0.922 ± 0.029
11,KIF11 (UniProt P52732),0.954 ± 0.025
12,PSMD7 (UniProt P51665),1 ± 0.1
13,RASSF2 (UniProt P50749),1.02 ± 0.11
14,CAPZA1 (UniProt P52907),0.92 ± 0.07
15,UniProt P52306 and related entries,0.914 ± 0.043
16,UniProt P61978-2|P61978-3|Q5T6W2,0.899 ± 0.056
17,LMO4 (UniProt P61968),1.07 ± 0.26
18,UniProt P55039 and related entries,0.944 ± 0.079
19,UniProt P60891,1.26 ± 0.25
20,UniProt P63279 and related entries,0.959 ± 0.062
21,UniProt P61024 and related entries,0.99 ± 0.065
22,UniProt P50750 and related entries,1.2 ± 0.1
23,UniProt P54687 and related entries,0.933 ± 0.077
24,UniProt P56270-2,0.948 ± 0.065
25,UniProt P63244 and related entries,0.922 ± 0.18
26,RAB8A (UniProt P61006),0.849 ± 0.068
27,UniProt P78346 and related entries,1.15 ± 0.18

# Pulled one by one from the list above:
row,Target,NP40-soluble protein abundance
10,STAT5B (UniProt P51692),0.922 ± 0.029
9,UniProt P60520,0.895 ± 0.072
